Values quoted from earlier work in patent publication US9011962B2, “Bovine meat compositions having enhanced quality, nutritive and health values obtained from enrichment diets” (priority 2007, dated 2015).
The name of at least one read-out is uncertain. At least one compound was matched to its structure with a doubt left.

Settings: sodium selenite = 100 (baseline)

O=[Se]([O-])[O-].[Co+2] [Cobalt Selenite, cobalt selenite]
Bioavailability (relative): 105

O=[Se](O)O [Sodium Selenite, sodium selenite]
Bioavailability (relative): 100
